Measurements as given in ChEMBL document CHEMBL5329184, “Design, synthesis, electrochemistry and anti-trypanosomatid hit/lead identification of nitrofuranylazines” (RSC Med Chem, 2023).

Test system: THP-1
Experiment: cells
Format: functional, cell-based
Conditions: Homo sapiens, THP-1, 72 h

IC50: > 100 µM
Structure (SMILES): O=C1OCCN1/N=C/c1ccc([N+](=O)[O-])o1 [FURAZOLIDONE]
